Results are given in words; binding and its absence hold for the method and conditions named. A result given as binding can be weak or reduced; the word gives no strength.

Chains of the proteins cited; added tags and fusions are not shown. Residues count along the entry.
UniProt P04985, residues 27-747: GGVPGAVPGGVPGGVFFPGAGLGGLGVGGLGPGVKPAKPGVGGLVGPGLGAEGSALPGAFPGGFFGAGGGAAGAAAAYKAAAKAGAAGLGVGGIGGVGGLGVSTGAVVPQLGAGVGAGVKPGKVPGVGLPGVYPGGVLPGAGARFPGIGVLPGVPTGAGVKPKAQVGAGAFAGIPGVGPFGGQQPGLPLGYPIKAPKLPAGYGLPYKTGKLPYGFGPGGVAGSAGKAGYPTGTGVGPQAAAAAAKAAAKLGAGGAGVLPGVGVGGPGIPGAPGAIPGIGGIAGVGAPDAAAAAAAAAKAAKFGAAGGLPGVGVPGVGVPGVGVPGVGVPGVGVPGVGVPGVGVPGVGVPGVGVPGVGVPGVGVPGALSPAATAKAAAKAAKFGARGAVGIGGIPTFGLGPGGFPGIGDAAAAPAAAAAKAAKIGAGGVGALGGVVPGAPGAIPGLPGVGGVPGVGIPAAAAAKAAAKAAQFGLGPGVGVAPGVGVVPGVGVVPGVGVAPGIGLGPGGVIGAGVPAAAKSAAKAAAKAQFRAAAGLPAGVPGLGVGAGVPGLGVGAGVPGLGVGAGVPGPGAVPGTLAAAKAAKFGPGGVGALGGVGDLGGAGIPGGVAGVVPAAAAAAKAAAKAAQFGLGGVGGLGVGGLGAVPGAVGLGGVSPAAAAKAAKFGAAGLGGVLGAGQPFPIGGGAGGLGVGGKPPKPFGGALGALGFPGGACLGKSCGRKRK

The target in assay [1] is elastin (purified from bovine neck ligament) (bovine) (UniProt P04985). The assay is described as follows: ELISA; host protein coated on microtiter wells (1 μg in PBS pH 7.4, overnight at 4 °C), blocked with 1% BSA; 1 μM recombinant protein, 2 h at 37 °C; detected with mouse antisera to the recombinant proteins; absorbance with BSA subtracted; both purified. In general terms: ELISA stands for enzyme-linked immunosorbent assay.

For assay [2] the target is unchanged. The assay can be described thus: co-sedimentation; 0.5, 1, 5 and 10 mg insoluble elastin mixed with 40 μg protein in 400 μl PBS, 60 min at 4 °C; centrifuged 20 min at 18,000 x g; supernatant (unbound) and washed pellet (bound) on 12% SDS-PAGE; both purified.

With “truncated form of leptospiral immunoglobulin-like protein B (LigBC, amino acids 631-1156) (from UniProt Q72V39) (domain or fragment)”, the binding result in assay [1] and in assay [2] was “binds” each time.

The record behind these values is paper PMC8011160.
